{
  "sequences": {"note": "Sequences of proteins named here, by UniProt entry; tags and fusion partners are left off. Residues count along the entry.", "UniProt P35991": "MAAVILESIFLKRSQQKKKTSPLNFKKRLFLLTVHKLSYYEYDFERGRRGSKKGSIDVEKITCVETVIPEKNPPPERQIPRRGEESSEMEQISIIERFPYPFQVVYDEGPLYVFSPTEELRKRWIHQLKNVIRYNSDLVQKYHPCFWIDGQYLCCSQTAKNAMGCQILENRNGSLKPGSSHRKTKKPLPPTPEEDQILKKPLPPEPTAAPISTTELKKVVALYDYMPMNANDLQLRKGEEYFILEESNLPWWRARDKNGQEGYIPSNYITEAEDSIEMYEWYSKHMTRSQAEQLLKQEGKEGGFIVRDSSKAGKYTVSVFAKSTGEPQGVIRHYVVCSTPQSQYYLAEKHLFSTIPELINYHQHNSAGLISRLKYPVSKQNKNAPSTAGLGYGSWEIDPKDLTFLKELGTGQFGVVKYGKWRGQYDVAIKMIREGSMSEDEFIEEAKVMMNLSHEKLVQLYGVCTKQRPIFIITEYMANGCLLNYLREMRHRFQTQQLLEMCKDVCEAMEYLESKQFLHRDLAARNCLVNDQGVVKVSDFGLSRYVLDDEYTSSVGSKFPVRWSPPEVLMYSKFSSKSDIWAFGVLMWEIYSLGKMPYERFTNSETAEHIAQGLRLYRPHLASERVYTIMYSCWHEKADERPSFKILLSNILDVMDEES", "UniProt P05555, residues 17-1153": "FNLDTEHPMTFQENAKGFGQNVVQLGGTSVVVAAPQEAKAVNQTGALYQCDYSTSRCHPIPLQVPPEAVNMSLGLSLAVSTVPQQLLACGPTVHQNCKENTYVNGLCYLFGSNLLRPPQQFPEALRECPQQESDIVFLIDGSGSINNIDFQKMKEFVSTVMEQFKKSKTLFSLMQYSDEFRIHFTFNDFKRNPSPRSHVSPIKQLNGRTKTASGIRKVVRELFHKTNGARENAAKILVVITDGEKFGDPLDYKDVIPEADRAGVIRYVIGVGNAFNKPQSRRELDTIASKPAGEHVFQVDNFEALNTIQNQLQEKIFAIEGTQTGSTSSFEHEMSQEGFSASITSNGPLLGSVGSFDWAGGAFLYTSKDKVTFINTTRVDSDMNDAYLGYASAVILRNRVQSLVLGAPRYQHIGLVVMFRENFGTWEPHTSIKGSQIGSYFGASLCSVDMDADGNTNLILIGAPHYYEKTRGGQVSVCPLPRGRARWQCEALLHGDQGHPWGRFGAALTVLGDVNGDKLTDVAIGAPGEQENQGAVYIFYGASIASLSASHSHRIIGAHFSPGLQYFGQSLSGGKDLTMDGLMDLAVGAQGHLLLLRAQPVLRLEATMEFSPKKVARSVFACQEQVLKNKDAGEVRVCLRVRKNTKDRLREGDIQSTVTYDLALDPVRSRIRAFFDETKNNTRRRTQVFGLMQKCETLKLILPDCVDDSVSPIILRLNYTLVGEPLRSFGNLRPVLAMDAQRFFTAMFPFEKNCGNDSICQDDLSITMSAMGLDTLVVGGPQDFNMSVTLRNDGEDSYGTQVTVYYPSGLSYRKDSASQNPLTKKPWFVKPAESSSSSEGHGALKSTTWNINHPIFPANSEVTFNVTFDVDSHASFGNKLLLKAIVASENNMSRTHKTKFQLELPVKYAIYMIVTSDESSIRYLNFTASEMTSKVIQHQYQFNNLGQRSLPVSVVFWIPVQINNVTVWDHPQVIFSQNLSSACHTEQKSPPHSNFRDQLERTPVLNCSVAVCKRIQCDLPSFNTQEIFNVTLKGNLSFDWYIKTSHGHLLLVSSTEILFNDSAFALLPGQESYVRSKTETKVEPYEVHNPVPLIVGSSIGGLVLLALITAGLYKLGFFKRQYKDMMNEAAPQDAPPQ"},
  "source": "paper PMC5098908",
  "assay_in_all_cases": "co-IP; lysates (500 μg protein, Pierce IP Lysis buffer) of mouse bone marrow-derived macrophages treated with CD95L (40 ng/ml) or non-treated; immunoprecipitated at 4°C for 4 hr with anti-Btk, anti-CD11a (M17/4) or anti-CD11b (M1/70), Dynabeads M-280 Streptavidin; immunoblotted for CD95",
  "key": {"[1]": {"molecular_target": "Bruton's tyrosine kinase (mouse (endogenous in bone marrow-derived macrophages)) (UniProt P35991)"}, "[2]": {"molecular_target": "T1, integrin αL (mouse (endogenous in bone marrow-derived macrophages)) (UniProt P24063)", "T1 sequence": "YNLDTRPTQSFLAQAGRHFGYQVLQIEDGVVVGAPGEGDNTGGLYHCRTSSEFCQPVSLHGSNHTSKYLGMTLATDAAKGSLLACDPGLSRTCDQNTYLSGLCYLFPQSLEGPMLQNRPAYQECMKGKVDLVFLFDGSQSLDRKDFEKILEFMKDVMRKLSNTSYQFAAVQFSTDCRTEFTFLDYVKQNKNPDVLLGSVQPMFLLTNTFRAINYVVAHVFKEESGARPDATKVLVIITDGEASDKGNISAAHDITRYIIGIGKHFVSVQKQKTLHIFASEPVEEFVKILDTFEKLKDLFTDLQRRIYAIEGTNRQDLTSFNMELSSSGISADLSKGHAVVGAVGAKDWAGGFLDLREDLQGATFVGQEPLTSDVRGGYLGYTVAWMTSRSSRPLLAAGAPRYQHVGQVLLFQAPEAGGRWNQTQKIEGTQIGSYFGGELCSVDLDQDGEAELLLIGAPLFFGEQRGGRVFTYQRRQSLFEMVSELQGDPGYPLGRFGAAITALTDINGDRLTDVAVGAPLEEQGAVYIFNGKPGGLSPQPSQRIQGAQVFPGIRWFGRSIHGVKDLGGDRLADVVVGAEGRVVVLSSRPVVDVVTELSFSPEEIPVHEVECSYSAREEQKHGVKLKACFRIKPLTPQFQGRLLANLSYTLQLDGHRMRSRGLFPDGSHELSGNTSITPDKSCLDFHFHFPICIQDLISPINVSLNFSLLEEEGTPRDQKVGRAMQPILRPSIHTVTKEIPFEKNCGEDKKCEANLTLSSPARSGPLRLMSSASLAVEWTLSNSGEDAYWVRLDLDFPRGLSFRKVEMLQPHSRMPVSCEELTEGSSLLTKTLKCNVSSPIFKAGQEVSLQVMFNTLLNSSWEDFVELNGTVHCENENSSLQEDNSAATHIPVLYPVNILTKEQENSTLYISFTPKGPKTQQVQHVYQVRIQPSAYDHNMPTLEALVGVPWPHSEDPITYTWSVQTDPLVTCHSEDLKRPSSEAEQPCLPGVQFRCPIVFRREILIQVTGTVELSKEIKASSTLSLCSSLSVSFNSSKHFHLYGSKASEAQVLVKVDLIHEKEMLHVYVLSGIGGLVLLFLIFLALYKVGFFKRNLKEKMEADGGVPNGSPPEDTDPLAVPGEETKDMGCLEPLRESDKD"}, "[3]": {"molecular_target": "integrin αM (mouse (endogenous in bone marrow-derived macrophages)) (UniProt P05555)"}},
  "note": "These are yes or no findings as the source states them, for the method shown. Binding seen in cells or lysates may run through a third protein. Some entries that bind do so weakly or less than the wild type.",
  "data": [
    {"binder": "CD95 (receptor, UniProt P25446 22-327) QGTNSISESLKLRRRVRETDKNCSEGLYQGGPFCCQPCQPGKKKVEDCKMNGGTPTCAPCTEGKEYMDKNHYADKCRRCTLCDEEHGLEVETNCTLTQNTKCKCKPDFYCDSPGCEHCVRCASCEHGTLEPCTATSNTNCRKQSPRNRLWLLTILVLLIPLVFIYRKYRKRKCWKRRQDDPESRTSSRETIPMNASNLSLSKYIPRIAEDMTIQEAKKFARENNIKEGKIDEIMHDSIQDTAEQKVQLLLCWYQSHGKSDAYQDLIKGLKKAECRRTLDKFQDMVQKDLGKSTPDTGNENEGQCLE", "values": [
      {"measurement": "binding", "setting": "[1]", "result": "binds"},
      {"measurement": "binding", "setting": "[2]", "result": "binds"},
      {"measurement": "binding", "setting": "[3]", "result": "no binding"}
    ]}
  ]
}
